PubChem BioAssay AID1159578 – Peter MacCallum Cancer Centre – 2015

Test: 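siRNA pools altering how lymphatic endothelial cells close a scratch wound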 (primary screen)
Cell system: human lymphatic endothelial cells
Knock-down reagent: siRNA pool against human genes, 40 nM
Timing: 48 h after transfection
Measured: 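High-content imaging of dye-stained cells in a scratch assay measures filled wound area and nuclei per well; duplicate means given as ratio to mock and robust z-score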
Scale: migration robust z-score: higher = faster migration into the scratch; nuclei per well: higher = more cells in the well
Call rule: 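Migration changed when robust z exceeds 2 or falls below -2 and mean nuclei number is at least 3300; otherwise not called changed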
Meaning of the calls: active = migration changed; inactive = no migration change, or too few cells
In all, the deposit lists about 18,000 reagents; shown is a random part of them. About 1,030 of them (5.7%) were called active. 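Inactive calls also include pools with fewer than 3300 nuclei, whose migration was not assessed.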 Raw values vary from plate to plate and are shown uncorrected. Entries without a mark were called inactive. Further read-outs or replicates are left out here.

| gene | migration robust z-score | nuclei per well, duplicate mean |
| --- | --- | --- |
| PCDHB4 | -0.59 | 6550 |
| C1orf159 | -0.4 | 6950 |
| SLC7A5 | 1.82 | 5088 |
| HNF4A | 0.44 | 6271 |
| NAXE | -0.81 | 5295 |
| DDR1 | -0.05 | 5326 |
| SLC18A1 | -0.08 | 6785 |
| CRX | 0.39 | 4765 |
| DGKG | -0.86 | 4652 |
| SELENON | 0.72 | 6616 |
| EFHB | 1.02 | 6786 |
| SLIRP-OT1 | -0.63 | 4925 |
| RCAN3 | 1.25 | 5622 |
| GPR50 | 0.91 | 5845 |
| AGRN | 0.2 | 6154 |
| ALDH9A1 | -1.33 | 4428 |
| EVC | 0.92 | 6201 |
| ATP1A3 | 1.2 | 5423 |
| USP7 | -0.03 | 5734 |
| DERL3 | -0.2 | 5710 |
| SLC39A6 | 1.28 | 7148 |
| TMEM225 | 0.7 | 6985 |
| SPINK7 | -1.06 | 696 |
| OR5H14 | -0.15 | 3870 |
| CELA3B | -0.16 | 5356 |
| PRKACB | 0.57 | 4544 |
| BUD23 | -0.6 | 4778 |
| TBPL1 | 0.1 | 6156 |
| TRIM11 | -0.03 | 6543 |
| KCNC4 | 0.18 | 5048 |
| PKN2 | -3.04 (active) | 3634 |
| RPE | -0.86 | 4646 |
| CAST | -0.5 | 5902 |
| HOXD1 | -0.92 | 5904 |
| AKR1D1 | -0.05 | 5166 |
| PRH1 | -0.57 | 8072 |
| CTPS2 | 0.26 | 5948 |
| GABRR3 | 1.01 | 5037 |
| CARD16 | -0.25 | 6854 |
| SFMBT2 | -0.04 | 5886 |
| SLC71A2 | -1.54 | 7326 |
| TM4SF20 | 0.45 | 6184 |
| BANF2 | -0.9 | 6604 |
| LCN12 | 0.76 | 6360 |
| NHLH2 | -0.95 | 5179 |
| CCL4 | 0.58 | 5602 |
| FBXO8 | -1.87 | 5724 |
| SLC24A2 | -1.46 | 3778 |
| IRAK1BP1 | 0.27 | 5222 |
| SLC17A8 | -1.77 | 7356 |
| PMS1 | -1.68 | 4198 |
| RGL4 | -0.02 | 6374 |
| RANBP10 | -0.52 | 6354 |
| UNC5A | 0.35 | 6254 |
| MOB2 | 0.9 | 6048 |
| PGM2L1 | 0.9 | 5768 |
| PAQR3 | -1.56 | 4125 |
